No constants are given. Whether binding was seen depends on the method and setting. In cells and extracts the contact can be indirect. Some binding calls cover weakened binding; strength is not graded here.
Molecular target: Nur77 (in HEK293T cells, co-immunoprecipitation) (UniProt P22736)
Assay: co-IP; HEK293T cells transfected with Nur77 and PPARγ plasmids, treated with peptide (ST-CY14 1 × 10^-5 M) for 24 h; NP40 lysis; IP with Nur77 antibody, blot for PPARγ and Trim13

The chains behind the UniProt entries cited, without tags or fusion partners.
UniProt P22736: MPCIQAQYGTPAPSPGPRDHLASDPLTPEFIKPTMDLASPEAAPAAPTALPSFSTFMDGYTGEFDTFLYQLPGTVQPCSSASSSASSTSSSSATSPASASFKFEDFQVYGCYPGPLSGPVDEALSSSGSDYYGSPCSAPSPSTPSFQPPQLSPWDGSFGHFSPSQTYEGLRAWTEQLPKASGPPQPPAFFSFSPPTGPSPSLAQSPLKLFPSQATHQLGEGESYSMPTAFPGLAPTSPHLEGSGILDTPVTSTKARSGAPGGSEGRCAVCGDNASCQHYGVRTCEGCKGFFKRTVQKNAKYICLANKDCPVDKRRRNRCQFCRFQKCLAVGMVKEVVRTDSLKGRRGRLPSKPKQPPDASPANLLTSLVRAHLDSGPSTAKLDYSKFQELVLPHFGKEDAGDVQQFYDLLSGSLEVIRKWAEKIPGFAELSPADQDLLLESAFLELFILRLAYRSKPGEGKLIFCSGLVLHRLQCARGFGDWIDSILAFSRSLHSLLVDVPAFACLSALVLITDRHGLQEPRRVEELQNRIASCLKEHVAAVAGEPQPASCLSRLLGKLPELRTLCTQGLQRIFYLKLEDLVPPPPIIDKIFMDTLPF

B1: Trim13 (enzyme, UniProt O60858 1-407)
chain: MELLEEDLTCPICCSLFDDPRVLPCSHNFCKKCLEGILEGSVRNSLWRPAPFKCPTCRKETSATGINSLQVNYSLKGIVEKYNKIKISPKMPVCKGHLGQPLNIFCLTDMQLICGICATRGEHTKHVFCSIEDAYAQERDAFESLFQSFETWRRGDALSRLDTLETSKRKSLQLLTKDSDKVKEFFEKLQHTLDQKKNEILSDFETMKLAVMQAYDPEINKLNTILQEQRMAFNIAEAFKDVSEPIVFLQQMQEFREKIKVIKETPLPPSNLPASPLMKNFDTSQWEDIKLVDVDKLSLPQDTGTFISKIPWSFYKLFLLILLLGLVIVFGPTMFLEWSLFDDLATWKGCLSNFSSYLTKTADFIEQSVFYWEQVTDGFFIFNERFKNFTLVVLNNVAEFVCKYKLL
In the case of B1, the binding is reported as “binds”.

Source: paper PMC11234460, “In Silico Discovery of Stapled Peptide Inhibitor Targeting the Nur77‐PPARγ Interaction and Its Anti‐Breast‐Cancer Efficacy” (Advanced Science, 2024)
